In article PMC9684570:
These are yes or no findings as the source states them, for the method shown. In cells and extracts the contact can be indirect. Binding can be weak; no strength is given.

Protein sequences, listed by entry. Tags and fused reporters are not part of them. Lines headed by an entry give the natural chain unless they say otherwise; changes in a name come on top.
UniProt Q13642: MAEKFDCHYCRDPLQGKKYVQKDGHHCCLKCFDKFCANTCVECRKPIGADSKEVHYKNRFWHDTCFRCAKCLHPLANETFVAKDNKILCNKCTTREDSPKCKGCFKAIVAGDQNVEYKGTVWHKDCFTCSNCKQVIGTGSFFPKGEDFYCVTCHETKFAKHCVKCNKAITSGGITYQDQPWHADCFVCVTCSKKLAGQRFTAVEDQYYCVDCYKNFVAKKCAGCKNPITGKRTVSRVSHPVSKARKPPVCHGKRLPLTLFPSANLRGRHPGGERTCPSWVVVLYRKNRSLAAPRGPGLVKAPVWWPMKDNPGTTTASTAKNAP
UniProt P31260: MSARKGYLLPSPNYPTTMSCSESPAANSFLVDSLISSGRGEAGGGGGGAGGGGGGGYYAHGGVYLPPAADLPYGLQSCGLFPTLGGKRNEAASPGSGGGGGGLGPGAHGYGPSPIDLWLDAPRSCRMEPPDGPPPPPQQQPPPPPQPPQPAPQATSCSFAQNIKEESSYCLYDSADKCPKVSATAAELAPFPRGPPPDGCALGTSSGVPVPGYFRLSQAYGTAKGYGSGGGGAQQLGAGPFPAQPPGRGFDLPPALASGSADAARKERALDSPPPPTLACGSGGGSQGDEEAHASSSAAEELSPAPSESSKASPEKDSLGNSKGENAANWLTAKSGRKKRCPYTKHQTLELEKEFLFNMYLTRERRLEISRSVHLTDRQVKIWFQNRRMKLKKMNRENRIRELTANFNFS

Assays:
Flag-FHL1 = Flag-FHL1 (UniProt Q13642); test: co-IP; HEK293T cells cotransfected for 48 h; whole-cell lysate (500 ug) on Myc antibody-conjugated or Flag antibody-conjugated beads overnight at 4 °C; blots with anti-Flag M2 and anti-Myc
[1] = target: endogenous HOXA10 (human (endogenous in Ishikawa)) (UniProt P31260); test: co-IP; Ishikawa whole-cell lysate (1 mg), anti-HOXA10 immunoprecipitation overnight at 4 °C, Protein A/G PLUS-Sepharose beads; goat IgG as negative control

Row | Substance | binding (Flag-FHL1) | binding [1]
1 | Myc-HOXA10 (from UniProt P31260 1-410) | binds | 
2 | endogenous FHL1 (from UniProt Q13642-1) |  | binds
